From article PMC12153781 come the findings set out here.

Amino acid sequences for entries named in this document (tags omitted).
UniProt P06748: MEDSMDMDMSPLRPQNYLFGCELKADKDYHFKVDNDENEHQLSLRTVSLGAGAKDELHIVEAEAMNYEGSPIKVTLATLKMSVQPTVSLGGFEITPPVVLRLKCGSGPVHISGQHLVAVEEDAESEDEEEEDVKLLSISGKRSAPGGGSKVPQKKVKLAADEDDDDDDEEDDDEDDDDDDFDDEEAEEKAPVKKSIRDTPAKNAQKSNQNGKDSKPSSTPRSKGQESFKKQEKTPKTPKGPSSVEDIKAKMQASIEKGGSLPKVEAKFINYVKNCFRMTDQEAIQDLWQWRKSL
UniProt P16403: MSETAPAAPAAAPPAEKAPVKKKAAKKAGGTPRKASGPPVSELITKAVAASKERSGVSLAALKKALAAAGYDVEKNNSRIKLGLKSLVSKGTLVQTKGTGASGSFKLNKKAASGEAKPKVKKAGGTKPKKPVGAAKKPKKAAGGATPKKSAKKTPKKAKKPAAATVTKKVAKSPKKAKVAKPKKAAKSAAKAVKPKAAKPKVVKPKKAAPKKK

No constants are given. Whether binding was seen depends on the method and setting. In cells and extracts the contact can be indirect. These calls come from enrichment with a bait or labelling near it, and not all partners need be listed. Sequences can lack the tags named with a protein.

The target of this experiment is T1, Flag-tagged SLFN11 (human) (UniProt Q7Z7L1).
T1 sequence: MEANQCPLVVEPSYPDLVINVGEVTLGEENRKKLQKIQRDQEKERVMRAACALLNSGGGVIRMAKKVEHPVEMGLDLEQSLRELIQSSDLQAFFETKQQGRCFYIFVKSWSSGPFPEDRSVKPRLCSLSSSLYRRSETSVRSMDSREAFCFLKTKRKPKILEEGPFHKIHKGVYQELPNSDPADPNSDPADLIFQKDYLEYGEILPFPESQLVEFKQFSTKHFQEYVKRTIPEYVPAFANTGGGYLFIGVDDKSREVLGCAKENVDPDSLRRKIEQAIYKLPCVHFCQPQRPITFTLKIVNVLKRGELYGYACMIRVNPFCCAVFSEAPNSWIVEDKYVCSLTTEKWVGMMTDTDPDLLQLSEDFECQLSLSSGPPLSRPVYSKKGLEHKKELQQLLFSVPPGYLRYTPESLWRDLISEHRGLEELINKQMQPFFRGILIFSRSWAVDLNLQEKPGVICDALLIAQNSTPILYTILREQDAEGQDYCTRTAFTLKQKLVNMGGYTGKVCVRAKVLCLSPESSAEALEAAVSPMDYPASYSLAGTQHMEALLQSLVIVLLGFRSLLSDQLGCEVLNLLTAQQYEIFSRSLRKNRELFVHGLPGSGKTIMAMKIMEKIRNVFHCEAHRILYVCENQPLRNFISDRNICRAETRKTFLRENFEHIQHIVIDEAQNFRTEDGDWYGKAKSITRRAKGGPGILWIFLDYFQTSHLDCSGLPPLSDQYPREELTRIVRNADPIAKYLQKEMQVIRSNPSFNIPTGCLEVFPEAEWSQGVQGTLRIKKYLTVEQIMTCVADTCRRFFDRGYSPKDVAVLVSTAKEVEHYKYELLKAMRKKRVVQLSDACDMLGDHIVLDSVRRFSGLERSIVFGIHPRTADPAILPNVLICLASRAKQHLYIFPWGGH
In words: affinity purification with mass spectrometry; cells co-transfected with CMV-L1-neoRT+ and SLFN11 or control plasmid; NP-40 lysis buffer; anti-Flag immunoprecipitation at 4 °C overnight, protein A/G agarose, elution with FLAG peptide (0.1 mg/mL), LC-MS/MS.

With NPM1 (from UniProt P06748 1-294), the binding result is “binds”. In the case of “linker histone H1.2 (from UniProt P16403 1-213)” it was “binds”.
